Results: paper doi:10.1101/2022.10.10.511681
Results are given in words; binding and its absence hold for the method and conditions named. For some assays here: In cells and extracts the contact can be indirect. Some results given as binding are weak or reduced against the parent protein; the word gives no strength. Tags and fused reporters may be left off the sequences shown.

T1: PER2-MYC (human) (UniProt O15055)
T1 sequence: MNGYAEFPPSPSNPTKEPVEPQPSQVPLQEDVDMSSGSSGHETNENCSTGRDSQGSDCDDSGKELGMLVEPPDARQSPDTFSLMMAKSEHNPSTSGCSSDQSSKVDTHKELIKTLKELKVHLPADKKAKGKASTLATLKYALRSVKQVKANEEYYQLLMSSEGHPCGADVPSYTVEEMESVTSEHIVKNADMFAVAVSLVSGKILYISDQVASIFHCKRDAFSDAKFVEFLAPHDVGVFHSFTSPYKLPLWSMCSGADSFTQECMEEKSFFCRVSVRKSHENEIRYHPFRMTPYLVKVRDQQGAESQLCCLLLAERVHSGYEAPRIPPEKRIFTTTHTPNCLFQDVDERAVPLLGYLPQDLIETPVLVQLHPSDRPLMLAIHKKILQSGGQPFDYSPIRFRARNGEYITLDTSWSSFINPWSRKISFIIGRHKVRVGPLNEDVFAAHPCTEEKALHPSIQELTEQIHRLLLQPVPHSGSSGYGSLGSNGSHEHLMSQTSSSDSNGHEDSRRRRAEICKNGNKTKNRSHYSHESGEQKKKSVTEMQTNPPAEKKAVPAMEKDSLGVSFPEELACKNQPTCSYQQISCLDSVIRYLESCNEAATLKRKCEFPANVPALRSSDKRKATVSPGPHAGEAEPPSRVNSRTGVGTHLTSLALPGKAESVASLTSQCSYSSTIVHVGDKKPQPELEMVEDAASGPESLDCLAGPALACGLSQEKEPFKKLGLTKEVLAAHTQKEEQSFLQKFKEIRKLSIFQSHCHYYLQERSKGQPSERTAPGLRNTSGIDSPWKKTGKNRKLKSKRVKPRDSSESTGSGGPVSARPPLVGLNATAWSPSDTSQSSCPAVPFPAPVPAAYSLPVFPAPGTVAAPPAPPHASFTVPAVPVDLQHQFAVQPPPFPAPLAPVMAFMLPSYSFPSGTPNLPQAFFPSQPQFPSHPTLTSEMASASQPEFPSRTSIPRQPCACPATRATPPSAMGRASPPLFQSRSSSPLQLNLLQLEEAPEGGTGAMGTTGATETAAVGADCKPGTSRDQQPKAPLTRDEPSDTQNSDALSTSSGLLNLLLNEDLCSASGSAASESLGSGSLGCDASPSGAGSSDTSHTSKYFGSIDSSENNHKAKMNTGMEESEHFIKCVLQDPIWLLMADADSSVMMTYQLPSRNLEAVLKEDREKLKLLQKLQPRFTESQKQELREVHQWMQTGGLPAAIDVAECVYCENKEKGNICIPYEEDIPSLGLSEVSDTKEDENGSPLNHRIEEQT

T2: full length PER2 (LTE cell-free expressed, eGFP or mCherry tagged) (human) (UniProt O15055)
T2 sequence: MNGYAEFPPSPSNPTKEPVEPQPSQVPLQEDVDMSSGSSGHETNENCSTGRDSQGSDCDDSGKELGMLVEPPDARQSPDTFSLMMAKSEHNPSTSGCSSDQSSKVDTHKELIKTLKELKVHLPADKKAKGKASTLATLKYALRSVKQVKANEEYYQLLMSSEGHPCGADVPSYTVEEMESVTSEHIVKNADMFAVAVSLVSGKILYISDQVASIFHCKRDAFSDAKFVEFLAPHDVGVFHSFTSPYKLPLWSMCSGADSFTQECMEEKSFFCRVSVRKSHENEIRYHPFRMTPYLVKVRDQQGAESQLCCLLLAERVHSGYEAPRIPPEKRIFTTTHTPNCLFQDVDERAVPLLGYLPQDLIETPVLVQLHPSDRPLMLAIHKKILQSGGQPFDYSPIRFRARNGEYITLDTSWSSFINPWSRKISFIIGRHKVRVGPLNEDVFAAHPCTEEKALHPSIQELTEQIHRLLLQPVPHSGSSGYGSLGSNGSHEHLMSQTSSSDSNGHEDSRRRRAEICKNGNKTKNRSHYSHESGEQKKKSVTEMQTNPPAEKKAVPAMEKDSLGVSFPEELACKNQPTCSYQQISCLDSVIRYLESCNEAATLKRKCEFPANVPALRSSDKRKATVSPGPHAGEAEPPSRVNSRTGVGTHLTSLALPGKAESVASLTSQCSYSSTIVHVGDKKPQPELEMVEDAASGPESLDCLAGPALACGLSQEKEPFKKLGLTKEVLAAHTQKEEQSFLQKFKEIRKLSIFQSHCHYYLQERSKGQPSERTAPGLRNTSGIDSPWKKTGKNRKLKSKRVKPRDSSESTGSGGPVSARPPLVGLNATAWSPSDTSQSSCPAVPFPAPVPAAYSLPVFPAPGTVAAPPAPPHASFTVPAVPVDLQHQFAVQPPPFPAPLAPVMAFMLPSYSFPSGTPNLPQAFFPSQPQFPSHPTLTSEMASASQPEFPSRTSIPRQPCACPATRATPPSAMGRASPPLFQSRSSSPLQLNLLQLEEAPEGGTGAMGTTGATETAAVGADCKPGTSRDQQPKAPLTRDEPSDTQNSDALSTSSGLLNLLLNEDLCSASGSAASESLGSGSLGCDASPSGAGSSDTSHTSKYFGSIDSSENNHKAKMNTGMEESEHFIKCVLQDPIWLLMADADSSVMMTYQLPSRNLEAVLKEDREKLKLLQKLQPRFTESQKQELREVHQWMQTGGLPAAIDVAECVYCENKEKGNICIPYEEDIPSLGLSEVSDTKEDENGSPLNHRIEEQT


Assays:
PER2-MYC (human) = molecular target: T1, PER2-MYC (human); assay: proximity ligation
[1] = molecular target: T2, full length PER2 (LTE cell-free expressed, eGFP or mCherry tagged) (human); assay: AlphaScreen or HTRF

binding (PER2-MYC (human))	binding [1]	Binder
binds		CAVIN3 (endogenous, HeLa) (protein, UniProt Q969G5 1-261) MRESALERGPVPEAPAGGPVHAVTVVTLLEKLASMLETLRERQGGLARRQGGLAGSVRRIQSGLGALSRSHDTTSNTLAQLLAKAERVSSHANAAQERAVRRAAQVQRLEANHGLLVARGKLHVLLFKEEGEVPASAFQKAPEPLGPADQSELGPEQLEAEVGESSDEEPVESRAQRLRRTGLQKVQSLRRALSGRKGPAAPPPTPVKPPRLGPGRSAEAQPEAQPALEPTLEPEPPQDTEEDPGRPGAAEEALLQMESVA
	binds	CAVIN3 full length (FL), LTE cell-free expressed (protein, UniProt Q969G5 1-261) MRESALERGPVPEAPAGGPVHAVTVVTLLEKLASMLETLRERQGGLARRQGGLAGSVRRIQSGLGALSRSHDTTSNTLAQLLAKAERVSSHANAAQERAVRRAAQVQRLEANHGLLVARGKLHVLLFKEEGEVPASAFQKAPEPLGPADQSELGPEQLEAEVGESSDEEPVESRAQRLRRTGLQKVQSLRRALSGRKGPAAPPPTPVKPPRLGPGRSAEAQPEAQPALEPTLEPEPPQDTEEDPGRPGAAEEALLQMESVA
